# Results are given in words; binding and its absence hold for the method and conditions named. Some entries that bind do so weakly or less than the wild type.
# T1: recombinant MuSK produced in E. coli (UniProt O15146)
# T1 sequence (looked up): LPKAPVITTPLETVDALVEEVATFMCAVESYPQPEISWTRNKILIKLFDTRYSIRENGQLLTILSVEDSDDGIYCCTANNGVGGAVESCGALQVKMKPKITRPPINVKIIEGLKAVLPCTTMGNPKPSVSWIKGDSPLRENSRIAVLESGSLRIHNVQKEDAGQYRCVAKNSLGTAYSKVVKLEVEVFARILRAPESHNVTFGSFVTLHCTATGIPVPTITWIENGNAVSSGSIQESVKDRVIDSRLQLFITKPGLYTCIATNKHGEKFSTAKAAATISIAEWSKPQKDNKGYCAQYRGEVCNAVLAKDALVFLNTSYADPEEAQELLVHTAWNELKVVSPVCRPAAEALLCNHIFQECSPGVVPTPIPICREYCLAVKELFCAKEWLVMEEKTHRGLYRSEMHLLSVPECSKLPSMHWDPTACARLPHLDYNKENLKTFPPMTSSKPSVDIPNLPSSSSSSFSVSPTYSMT
# T2: MuSK produced in yeast (UniProt O15146)
# T2 sequence (looked up): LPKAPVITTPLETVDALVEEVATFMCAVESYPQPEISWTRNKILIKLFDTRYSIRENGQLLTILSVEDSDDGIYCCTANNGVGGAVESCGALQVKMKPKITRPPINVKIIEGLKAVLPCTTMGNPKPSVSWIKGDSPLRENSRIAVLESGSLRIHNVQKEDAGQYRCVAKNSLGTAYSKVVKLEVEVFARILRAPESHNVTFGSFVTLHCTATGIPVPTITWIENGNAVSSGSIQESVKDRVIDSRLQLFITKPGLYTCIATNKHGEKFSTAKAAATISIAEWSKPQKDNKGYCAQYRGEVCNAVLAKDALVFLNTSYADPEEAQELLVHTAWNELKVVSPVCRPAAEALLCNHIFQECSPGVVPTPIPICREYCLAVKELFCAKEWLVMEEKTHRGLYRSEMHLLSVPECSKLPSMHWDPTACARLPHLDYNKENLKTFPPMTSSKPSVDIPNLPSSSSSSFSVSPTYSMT
# T3: MuSK at mouse neuromuscular junctions (levator auris longus muscle) and endogenous MuSK of C2C12 myotubes (mouse) (UniProt Q61006)
# T3 sequence (looked up): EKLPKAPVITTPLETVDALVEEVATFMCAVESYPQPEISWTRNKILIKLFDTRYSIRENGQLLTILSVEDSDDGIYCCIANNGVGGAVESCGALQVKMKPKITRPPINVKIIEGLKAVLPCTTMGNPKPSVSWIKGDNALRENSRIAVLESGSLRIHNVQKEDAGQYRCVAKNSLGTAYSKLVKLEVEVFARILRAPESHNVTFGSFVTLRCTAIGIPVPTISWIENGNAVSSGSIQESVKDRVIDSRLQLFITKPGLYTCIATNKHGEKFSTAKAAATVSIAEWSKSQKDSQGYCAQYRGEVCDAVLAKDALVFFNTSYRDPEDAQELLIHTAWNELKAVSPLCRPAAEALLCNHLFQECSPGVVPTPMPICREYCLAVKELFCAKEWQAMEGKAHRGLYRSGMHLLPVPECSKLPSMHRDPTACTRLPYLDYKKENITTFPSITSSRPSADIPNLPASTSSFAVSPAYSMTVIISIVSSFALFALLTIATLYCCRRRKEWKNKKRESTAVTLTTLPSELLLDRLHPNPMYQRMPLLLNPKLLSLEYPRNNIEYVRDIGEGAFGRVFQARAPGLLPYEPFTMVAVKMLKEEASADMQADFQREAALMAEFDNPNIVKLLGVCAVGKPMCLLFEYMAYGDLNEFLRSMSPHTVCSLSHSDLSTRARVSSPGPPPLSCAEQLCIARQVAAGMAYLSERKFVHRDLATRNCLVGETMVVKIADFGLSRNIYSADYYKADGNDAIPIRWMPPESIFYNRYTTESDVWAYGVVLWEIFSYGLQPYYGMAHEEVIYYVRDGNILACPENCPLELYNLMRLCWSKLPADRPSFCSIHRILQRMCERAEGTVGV
# What was measured:
# [1] = biological target: T1, recombinant MuSK produced in E. coli; assay: antigen-specific single B cell sorting with labelled recombinant MuSK (E. coli, R-PE; yeast, DyLight 650); members from Table 3
# [2] = biological target: T2, MuSK produced in yeast; assay: ELISA, culture medium on yeast-produced MuSK, compared with AChR alpha subunit control antigen
# [3] = biological target: T1, recombinant MuSK produced in E. coli; assay: ELISA, single B cell culture medium on coated recombinant MuSK (FIGS. 3 and 4)
# [4] = biological target: T3, MuSK at mouse neuromuscular junctions (levator auris longus muscle) and endogenous MuSK of C2C12 myotubes (mouse); assay: immunostaining of isolated mouse levator auris longus muscle, confocal microscopy
# [5] = biological target: T3, MuSK at mouse neuromuscular junctions (levator auris longus muscle) and endogenous MuSK of C2C12 myotubes (mouse); assay: immunostaining of whole mount mouse levator auris longus muscle (FIG. 1, IgG4 recombinant antibodies shown)
# [6] = biological target: T3, MuSK at mouse neuromuscular junctions (levator auris longus muscle) and endogenous MuSK of C2C12 myotubes (mouse); assay: staining of mouse NMJ in ex vivo levator auris longus muscle
Binder,binding [1],binding [2],binding [3],binding [4],binding [5],binding [6]
"11-3D9 (MuSK autoantibody clone from MuSK MG patient 1, B cell culture medium) (antibody, IgG1, V domains shown) VH: EVQLVESGGGLVKPGESLRLSCAASGFNFSTYTMHWVRQAPGKGLEWVSSISSRSAYKYYADSVKGRFTISRDIAKNSLYLQMNSLRAEDTAVYYCARDFFQLGPPRFDSWGQGTLVTVSS VL: DIQMTQSPSSLSASIGDRVTISCRASQRISSFLNWYQQKPGKPPNLLIYGASNLQSGVPSRFSGSGSGTDFTLTITSLQPEDYAIYYCQQSYSPMYTFGQGTSLEIK",binds,binds,binds,,,
"13-3B5 (MuSK autoantibody clone from MuSK MG patient 1, B cell culture medium) (antibody, IgG4, V domains shown) VH: QVQLVQSGAVVAKPGASVQVSCKTSGYTFTGQYLHWVRQAPGQGLEWIGWINPSSGVTKFAEKFEGRATMTRDTSITTAYIDLRSLRSDDTATYYCATLSLGVYYVGMVAWGQGTLVTVSS VL: SYELTQPPSVSVSPGQTATITCSGDGLAQQHVYWFQQRPGQAPLLIIYKDIERPSGIPERFSGSSSGTTAMLTISGVQAEDEADYYCQSGDRTATSVLFGGGTKMTVL",binds,,binds,,,
"13-3B5 recombinant IgG1 (bivalent monospecific) (antibody, V domains shown) VH: QVQLVQSGAVVAKPGASVQVSCKTSGYTFTGQYLHWVRQAPGQGLEWIGWINPSSGVTKFAEKFEGRATMTRDTSITTAYIDLRSLRSDDTATYYCATLSLGVYYVGMVAWGQGTLVTVSS VL: SYELTQPPSVSVSPGQTATITCSGDGLAQQHVYWFQQRPGQAPLLIIYKDIERPSGIPERFSGSSSGTTAMLTISGVQAEDEADYYCQSGDRTATSVLFGGGTKMTVL",,,,binds,,
"11-3F6 (MuSK autoantibody clone from MuSK MG patient 1, B cell culture medium) (antibody, IgG1, V domains shown) VH: EVQLVESGGGLVKPGGSLRLSCAASGFTFSSYTMDWVRQAPGKGLEWVSSIGSNGDYIYYADSVRGRFTISRDNAKNSLYLQMNSLRPDDTADYYCARGQLAVAGTHFDYWGRGSLVTVSS VL: DIQMTQSPSSLSASVGDRVTISCRASQKVNKYVNWYQQTPGKAPRLLIYAASTLQSGVPSRFSGSGSGANFTLTISGLQPEDFAIYFCQQSYSPLCTFGQGTKLEIK",binds,binds,binds,,,
"11-3F6 recombinant IgG4 (bivalent monospecific, homospecific) (antibody, V domains shown) VH: EVQLVESGGGLVKPGGSLRLSCAASGFTFSSYTMDWVRQAPGKGLEWVSSIGSNGDYIYYADSVRGRFTISRDNAKNSLYLQMNSLRPDDTADYYCARGQLAVAGTHFDYWGRGSLVTVSS VL: DIQMTQSPSSLSASVGDRVTISCRASQKVNKYVNWYQQTPGKAPRLLIYAASTLQSGVPSRFSGSGSGANFTLTISGLQPEDFAIYFCQQSYSPLCTFGQGTKLEIK",,,,binds,binds,binds
"11-3F6 recombinant IgG1 (bivalent monospecific) (antibody, V domains shown) VH: EVQLVESGGGLVKPGGSLRLSCAASGFTFSSYTMDWVRQAPGKGLEWVSSIGSNGDYIYYADSVRGRFTISRDNAKNSLYLQMNSLRPDDTADYYCARGQLAVAGTHFDYWGRGSLVTVSS VL: DIQMTQSPSSLSASVGDRVTISCRASQKVNKYVNWYQQTPGKAPRLLIYAASTLQSGVPSRFSGSGSGANFTLTISGLQPEDFAIYFCQQSYSPLCTFGQGTKLEIK",,,,binds,,

# Now from value to binder:
binding [1],binding [2],binding [3],binding [4],binding [5],binding [6],Binder
,,,binds,binds,binds,"13-3B5 recombinant IgG4 (bivalent monospecific, homospecific) (antibody, V domains shown) VH: QVQLVQSGAVVAKPGASVQVSCKTSGYTFTGQYLHWVRQAPGQGLEWIGWINPSSGVTKFAEKFEGRATMTRDTSITTAYIDLRSLRSDDTATYYCATLSLGVYYVGMVAWGQGTLVTVSS VL: SYELTQPPSVSVSPGQTATITCSGDGLAQQHVYWFQQRPGQAPLLIIYKDIERPSGIPERFSGSSSGTTAMLTISGVQAEDEADYYCQSGDRTATSVLFGGGTKMTVL"
binds,,binds,,,,"13-3D10 (MuSK autoantibody clone from MuSK MG patient 1, B cell culture medium) (antibody, IgG1, V domains shown) VH: EDLLVESGGGLVKPGQSLTLSCAASGFDFSASTMAWVRQAPGKGLEWVASVSGDSHHIYYADSLKGRFTLSRDNARNSFFLEMNSLRAEDTAVYYCARERLLRLGVGFDSWGQGSLVAVSS VL: DIHMTQSPSSLSSSVGDRVTMTCRASQRISGFVNWYQQKPGRAPTLLISAASTLQSGVPSRFSGSASGTDFTLTISGLQPEDSAIYYCQQSYSPLYTFGQGTKVEIK"
,,binds,,,,"14-2E9 (MuSK autoantibody clone from a MuSK MG patient, B cell culture medium) (antibody, V domains shown) VH: EVQLVESGGGLVQPGGSLRLSCAASGFTFSSYWMHWVRQVPGKGLVWVSRLNEDGSTTNYADSVKGRFTISRDNAKYTLYLQMNSLRFEDTAVYYCVSDLSGKDEHWGQGTLVTVSS VL: DIVMTQSPLSLPVTPGEPASISCRSTQSLLHSNGYYWLDWYLQKPGQSPQLLVYLGFNRASGVPDRFSGSGSGTDFTLKISRVEAEDVGVYYCMQGLQTPYTFGQGTTLEIK"
binds,,binds,,,,"13-4D3 (MuSK autoantibody clone from MuSK MG patient 1, B cell culture medium) (antibody, IgG3, V domains shown) VH: EVQLMESGGGLVKPGGSLRLSCTASGFTFSSYTMTWVRQAPGKGLEWVSSISSGGHYIYYTDSLKGRFIISRDNAKNSVFLQMNNLRAEDTATYYCARERLLRLGVGFDFWGQGSLVTVSS VL: DIQMTQSPSSLSASEGDRVTMTCRASQSISGYLNWYQQKPGKAPKLLIYAASTLQSGVPSRFSGSSSGTEFTLSISSLQPEDFATYYCQQSYSALYTFGQGTRVEIK"
